Values of other authors, collected in patent publication US20250049842A1, “THERAPEUTIC BLOOD-ACID-SHIFTING COMPOSITIONS AND METHODS” (priority 2023, published 2025).
Read-outs that look alike come from different tables or passages of the source. Some of these results come from one statement about several compounds together.

Details: step (1) HA/A−

SMILES	pKa (pKa1, first or only dissociation) (listed as Chloric)	pKa (pKa1, first or only dissociation) (listed as Perchloric)
[O-][Cl+2]([O-])O [Chloric Acid]	(Ka > 1, pKa < 1).	
[O-][Cl+3]([O-])([O-])O [Perchloric Acid]		(Ka > 1, pKa < 1).
